Measurements taken from patent US20160137744A1 (ONCOMED PHARMACEUTICALS, published 2016).
These are yes or no findings as the source states them, for the method shown. Some results given as binding are weak or reduced against the parent protein; the word gives no strength. Tags and fused reporters may be left off the sequences shown.

Chains of the proteins cited; added tags and fusions are not shown. Lines headed by an entry give the natural chain unless they say otherwise; changes in a name come on top.
UniProt P08581: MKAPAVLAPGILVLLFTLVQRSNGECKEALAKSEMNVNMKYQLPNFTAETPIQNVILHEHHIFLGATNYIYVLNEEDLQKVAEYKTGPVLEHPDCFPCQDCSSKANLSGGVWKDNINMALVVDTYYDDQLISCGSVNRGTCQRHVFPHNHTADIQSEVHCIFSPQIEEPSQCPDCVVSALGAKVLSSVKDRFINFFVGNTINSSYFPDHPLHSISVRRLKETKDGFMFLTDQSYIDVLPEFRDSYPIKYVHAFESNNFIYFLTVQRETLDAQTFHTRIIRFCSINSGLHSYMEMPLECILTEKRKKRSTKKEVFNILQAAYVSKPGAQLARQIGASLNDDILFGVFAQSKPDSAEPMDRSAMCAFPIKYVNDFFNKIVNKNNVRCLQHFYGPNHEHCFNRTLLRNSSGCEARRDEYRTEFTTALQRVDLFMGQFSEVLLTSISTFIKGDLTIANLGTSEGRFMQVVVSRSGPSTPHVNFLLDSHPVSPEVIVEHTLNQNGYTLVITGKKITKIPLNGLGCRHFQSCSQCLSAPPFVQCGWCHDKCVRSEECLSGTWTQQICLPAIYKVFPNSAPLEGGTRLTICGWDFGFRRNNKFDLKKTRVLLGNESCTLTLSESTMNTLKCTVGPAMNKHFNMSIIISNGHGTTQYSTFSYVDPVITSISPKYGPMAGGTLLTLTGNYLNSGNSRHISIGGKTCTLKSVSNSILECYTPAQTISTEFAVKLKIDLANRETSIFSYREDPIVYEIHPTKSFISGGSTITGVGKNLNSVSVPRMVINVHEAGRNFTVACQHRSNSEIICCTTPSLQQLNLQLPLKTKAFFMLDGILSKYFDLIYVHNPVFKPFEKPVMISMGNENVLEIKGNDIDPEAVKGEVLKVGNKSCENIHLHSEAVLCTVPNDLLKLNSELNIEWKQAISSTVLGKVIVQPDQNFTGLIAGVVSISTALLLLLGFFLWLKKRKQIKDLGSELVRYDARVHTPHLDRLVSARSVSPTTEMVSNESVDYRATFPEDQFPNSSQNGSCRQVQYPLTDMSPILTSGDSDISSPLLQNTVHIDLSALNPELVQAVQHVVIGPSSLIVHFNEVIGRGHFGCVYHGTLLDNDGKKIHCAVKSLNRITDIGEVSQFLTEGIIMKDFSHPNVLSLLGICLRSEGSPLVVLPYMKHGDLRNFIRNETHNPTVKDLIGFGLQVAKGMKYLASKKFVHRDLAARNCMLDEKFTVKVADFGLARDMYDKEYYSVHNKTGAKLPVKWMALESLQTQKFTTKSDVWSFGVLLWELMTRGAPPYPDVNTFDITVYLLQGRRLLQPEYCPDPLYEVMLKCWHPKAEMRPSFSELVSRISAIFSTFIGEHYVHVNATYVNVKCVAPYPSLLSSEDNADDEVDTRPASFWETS

Target: human MET (soluble analyte in Biacore) (human, UniProt P08581 25-932)
Experiment: SPR (Biacore 2000)

binding: binds
B1: anti-MET/FZD8-Fc bispecific agent 315B6 (bispecific antibody, human IgG2, kappa)
heavy: QVQLQESGPGLVKPSETLSLTCTVTGTTITASYAWSWIRQPPGKGLEWMGYISYSGGTDYNPSLKSRITISRDTFKNQFSLKLSSVTAADTATYYCARKGAYWGQGTLVTVSSASTKGPSVFPLAPCSRSTSESTAALGCLVKDYFPEPVTVSWNSGALTSGVHTFPAVLQSSGLYSLSSVVTVPSSNFGTQTYTCNVDHKPSNTKVDKTVERKCCVECPPCPAPPVAGPSVFLFPPKPKDTLMISRTPEVTCVVVDVSHEDPEVQFNWYVDGVEVHNAKTKPREEQFNSTFRVVSVLTVVHQDWLNGKEYKCKVSNKGLPAPIEKTISKTKGQPREPQVYTLPPSREKMTKNQVSLTCLVKGFYPSDIAVEWESNGQPENNYKTTPPMLKSDGSFFLYSKLTVDKSRWQQGNVFSCSVMHEALHNHYTQKSLSLSPGK
light: DIVLTQSPATLSASPGEKVTLTCSASSSVSSSYLYWYQQKPGQAPKLLIYSTSNLASGVPARFSGSGSGTSYSLTISSLEPEDFATYYCHQWSSYPYTFGGGTKLEIKRTVAAPSVFIFPPSDEQLKSGTASVVCLLNNFYPREAKVQWKVDNALQSGNSQESVTEQDSKDSTYSLSSTLTLSKADYEKHKVYACEVTHQGLSSPVTKSFNRGEC
chain: ASAKELACQEITVPLCKGIGYNYTYMPNQFNHDTQDEAGLEVHQFWPLVEIQCSPDLKFFLCSMYTPICLEDYKKPLPPCRSVCERAKAGCAPLMRQYGFAWPDRMRCDRLPEQGNPDTLCMDYNRTDLTTTKVDKTVERKSCVECPPCPAPPVAGPSVFLFPPKPKDTLMISRTPEVTCVVVDVSHEDPEVQFNWYVDGVEVHNAKTKPREEQFNSTFRVVSVLTVVHQDWLNGKEYKCKVSNKGLPAPIEKTISKTKGQPREPQVYTLPPSREEMTKNQVSLTCLVEGFYPSDIAVEWESNGQPENNYKTTPPMLDSDGSFFLYSELTVDKSRWQQGNVFSCSVMHEALHNHYTQKSLSLSPGK
notes: Heterodimer of a monovalent 73R009 arm (heavy + light) and a FZD8 Fri-Fc fusion arm; plasmids ATCC PTA-13609, PTA-13610, PTA-13611; also called bispecific anti-MET/FZD8-Fc agent
